Source: PubChem BioAssay AID2551 (National Center for Advancing Translational Sciences (NCATS), 2010)
Hit rate of the full screen: of about 310,000 compounds, about 17,000 (5.5%) were called active. Inconclusive results, whose numbers are uncertain, are shown with a selection of clear calls. The call rests on the fitted dose curve; in most records, active means well fitted inhibition curve with a large enough effect; inconclusive means small, poorly fitted or top-dose-only effect, or effect the other way; inactive means no such curve, though single readings can be large or run the other way. Where the call is inconclusive, the potency comes from a doubtful curve fit. Where a SMILES comes first, the peptide text is derived from it. The star is where a group is joined. Boc = CC(C)(C)OC(=O)*

Protein sequences, listed by entry. Tags and fused reporters are not part of them. Lines headed by an entry give the natural chain unless they say otherwise; changes in a name come on top.
UniProt P51450: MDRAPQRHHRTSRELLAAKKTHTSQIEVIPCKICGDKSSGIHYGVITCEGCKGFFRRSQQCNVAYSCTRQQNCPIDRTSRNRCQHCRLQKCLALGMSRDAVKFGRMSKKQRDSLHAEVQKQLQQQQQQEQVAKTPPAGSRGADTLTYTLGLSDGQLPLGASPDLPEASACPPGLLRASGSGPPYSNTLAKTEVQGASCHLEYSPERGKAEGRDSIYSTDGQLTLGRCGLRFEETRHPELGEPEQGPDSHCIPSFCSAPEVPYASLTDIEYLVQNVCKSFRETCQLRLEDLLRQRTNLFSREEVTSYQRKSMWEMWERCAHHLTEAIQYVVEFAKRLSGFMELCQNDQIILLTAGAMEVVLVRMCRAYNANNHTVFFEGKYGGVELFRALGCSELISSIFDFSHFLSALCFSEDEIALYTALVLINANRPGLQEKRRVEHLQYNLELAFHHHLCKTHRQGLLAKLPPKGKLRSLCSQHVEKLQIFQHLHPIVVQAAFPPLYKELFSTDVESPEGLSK

biological target: Nuclear receptor ROR-gamma (Mus musculus) (UniProt P51450); assay: qHTS for inhibitors of ROR gamma transcriptional activity; details: Drosophila S2 Gal4-RORgamma UAS-luciferase reporter, 20 h; series mostly up to 53.6 µM; further: nearly all actives have a fitted effect of over 60% in size
Procedure, shortened: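 A Gal4/UAS one-hybrid system in insect cells: metallothionein-promoter Gal4–ROR gamma fusion plus Photinus luciferase reporter. Copper sulfate 700 uM final, 20 hr ambient incubation, luminescent detection after 10 min with reagent.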
Potency means the concentration at half of the fitted maximal effect.

Row | SMILES | Potency
1 | C(=C\c1nnc2c3ccccc3ncn12)/c1ccccc1 | inconclusive: 10 µM [activator, partial curve]
2 | Cc1nn(-c2ccc([N+](=O)[O-])cc2)c(N)c1-c1ccccc1 | inconclusive: 3.16 µM [activator, single point]
3 | NS(=O)(=O)c1ccc(NC(=O)COC(=O)c2c3c(nc4ccccc24)/C(=C\c2ccc4c(c2)OCO4)CCC3)cc1 | inconclusive: 22.4 µM [activator, single point]
4 | Cc1cccc(C(=O)NC(=S)N2CCc3ccccc3C2)c1 | active: 1.41 µM
5 | COC(C(=O)C(O)C(C)O)C1Cc2cc3cc(OC4CC(OC5CC(O)C(O)C(C)O5)C(O)C(C)O4)c(C)c(O)c3c(O)c2C(=O)C1OC1CC(OC2CC(OC3CC(C)(O)C(O)C(C)O3)C(O)C(C)O2)C(O)C(C)O1 (stereo not drawn) | active: 0.708 µM
6 | CC(NC(=O)C(NC(=O)C1CCCN1C(=O)OC(C)(C)C)C(C)C)C(N)=O (stereo not drawn) (Boc-Pro-Val-Ala-NH2; configuration not given here) | inconclusive: 0.1 µM [inhibitor, single point]
7 | CN(Cc1ccccc1)C(=O)[C@H](Cc1ccc2ccccc2c1)NC(=O)[C@@H]1C[C@@H](O)CN1C(=O)c1cn(C)c2ccccc12 | inactive
8 | CCn1cc2nc(SCC(=O)Nc3ccc(F)cc3F)n(Cc3ccccc3)c(=O)c2n1 | inconclusive: 14.1 µM [activator, single point]
9 | Cc1ccc(-c2csc(N/N=C/c3ccco3)n2)c(C)c1 | inconclusive: 31.6 µM [inhibitor, single point]
10 | CN(C)c1ccc(C(CNC(=O)c2ccccc2)c2c[nH]c3ccccc23)cc1 (stereo not drawn) | inconclusive: 20 µM [activator, single point]
11 | COc1ccc(-c2noc(-c3ccc(Cl)cc3[N+](=O)[O-])n2)cc1OC | inactive
12 | c1ccc(Nc2c3c(nc4ccccc24)CCC3)cc1 | inactive
13 | O=C(NN1C(=O)C2C3C=CC(O3)C2C1=O)c1cccc(Br)c1 (stereo not drawn) | inactive
14 | CCc1ccc(C2=NNC(=Nc3cccc(S(=O)(=O)N(C)C)c3)SC2)cc1 | inconclusive: 1.26 µM [activator, single point]
15 | Cc1ccc(NC(=O)N(Cc2nc3ccccc3c(=O)[nH]2)Cc2cccs2)cc1 | inconclusive: 2.24 µM [inhibitor, full curve, poor fit]
16 | Cc1noc(C)c1C(=O)N1CCC2(CC1)CN(C(=O)Nc1cccc(F)c1)C2 | inactive
17 | O=C(Nc1c2c(nn1-c1ccc(F)cc1)CS(=O)(=O)C2)C1CCCC1 | inactive
18 | CSc1nc2ccc3nc(NC(=O)c4cccs4)sc3c2s1 | active: 6.31 µM
19 | CC1Sc2ccc(S(=O)(=O)CCC(=O)N3CCCC3)cc2NC1=O (stereo not drawn) | inactive
20 | Nc1nc2ccc(N3CCOCC3)cc2s1 | inconclusive: 35.5 µM [inhibitor, single point]
21 | CSCc1nnc(NC(=O)c2ccc(S(=O)(=O)N(CC(C)C)CC(C)C)cc2)o1 | active: 0.282 µM
22 | Cc1cc(NC(=O)CC2CCCC2)n(-c2nc3ccccc3[nH]2)n1 | active: 1.78 µM

Shown tab-delimited: entries from further up
Row	SMILES	Potency
6	CC(NC(=O)C(NC(=O)C1CCCN1C(=O)OC(C)(C)C)C(C)C)C(N)=O (stereo not drawn) (Boc-Pro-Val-Ala-NH2; configuration not given here)	inconclusive: 0.1 µM [inhibitor, single point]
7	CN(Cc1ccccc1)C(=O)[C@H](Cc1ccc2ccccc2c1)NC(=O)[C@@H]1C[C@@H](O)CN1C(=O)c1cn(C)c2ccccc12	inactive

(list continues)

Row | SMILES | Potency
23 | CN(CCc1ccccn1)C(=O)Nc1ccc(C(C)(C)C)cc1 | inactive
24 | O=C(/C=N/O)Nc1ccc(F)cc1 | inconclusive: 6.31 µM [activator, full curve, poor fit]
25 | COCCn1c(=NC(=O)c2ccccc2[N+](=O)[O-])sc2cc(S(C)(=O)=O)ccc21 | inconclusive: 1 µM [activator, full curve, poor fit]
26 | Cc1nn(CCCC(=O)NCc2ccc(F)cc2)c(=O)c2nccn12 | inactive
27 | N#CC1=C2SCN(Cc3ccco3)CN2C(=O)CC1c1ccc(Cl)cc1 (stereo not drawn) | inconclusive: 15.8 µM [inhibitor, single point]
28 | CCOc1ccccc1NC(=S)Nc1ncccc1C | active: 7.08 µM
29 | COc1ccc(CC(=O)N2CCN(c3cccc(Cl)c3)CC2)cc1OC | inconclusive: 12.6 µM [activator, single point]
30 | CN(Cc1ccccc1)C(=O)c1ccc(NC(=O)c2ccccc2)cc1 | inconclusive: 17.8 µM [activator, single point]
31 | COc1ccc(C(=O)NNC(=S)NC2CCCCC2)cc1OC | active: 7.94 µM
32 | COc1ccccc1NC(=O)c1ccc(NC(=O)COC(=O)C(C)C)cc1 | inactive
33 | O=[N+]([O-])c1ccc2c(c1)C=C1CCCCC1(N1CCCC1)O2 (stereo not drawn) | inactive
34 | CCOc1ccc(NC(=O)CC2C(=O)N(C)C(=S)N2CCCc2ccccc2)cc1 (stereo not drawn) | inconclusive: 35.5 µM [activator, single point]
35 | Cc1ccc2nc(-c3ccc(NC(=O)CN4CCN(c5ccccn5)CC4)cc3)sc2c1 | inconclusive: 1.58 µM [inhibitor, partial curve]
36 | CC(C)NC(=O)/C(C#N)=C/c1cccc(NC(=O)c2ccccc2Cl)c1 | inconclusive: 22.4 µM [inhibitor, single point]
37 | CCOC(=O)c1cccc(NC(=O)CSc2nc3cccnc3n2C)c1 | inconclusive: 35.5 µM [activator, single point]
38 | CCN1CCc2c(sc(NC(=O)c3ccc4ccccc4c3)c2C(N)=O)C1 | inconclusive: 35.5 µM [inhibitor, single point]
39 | O=C(NCC1CCCO1)c1ccc(Oc2ccc([N+](=O)[O-])cc2Cl)cc1 (stereo not drawn) | inconclusive: 12.6 µM [activator, single point]
40 | CCc1nc(SCC(=O)c2cccc([N+](=O)[O-])c2)n[nH]1 | inconclusive: 12.6 µM [inhibitor, partial curve]
41 | COc1cc(C2NCC(c3ccc(Cl)cc3Cl)c3c2[nH]c2ccccc32)cc(OC)c1OC (stereo not drawn) | inconclusive: 15.8 µM [activator, partial curve, poor fit]
42 | COC(=O)c1c(NC(=S)Nc2ccc(F)cc2[N+](=O)[O-])sc2c1CCCCC2 | inconclusive: 6.31 µM [inhibitor, single point]
43 | CCOC(=O)N1CCc2c(sc3nc(SC(C)C)n(N)c(=O)c23)C1 | inconclusive: 28.2 µM [activator, partial curve]
